{"sequences": {"note": "Protein sequences, listed by entry. Tags and fused reporters are not part of them. Lines headed by an entry give the natural chain unless they say otherwise; changes in a name come on top.", "UniProt P02452": "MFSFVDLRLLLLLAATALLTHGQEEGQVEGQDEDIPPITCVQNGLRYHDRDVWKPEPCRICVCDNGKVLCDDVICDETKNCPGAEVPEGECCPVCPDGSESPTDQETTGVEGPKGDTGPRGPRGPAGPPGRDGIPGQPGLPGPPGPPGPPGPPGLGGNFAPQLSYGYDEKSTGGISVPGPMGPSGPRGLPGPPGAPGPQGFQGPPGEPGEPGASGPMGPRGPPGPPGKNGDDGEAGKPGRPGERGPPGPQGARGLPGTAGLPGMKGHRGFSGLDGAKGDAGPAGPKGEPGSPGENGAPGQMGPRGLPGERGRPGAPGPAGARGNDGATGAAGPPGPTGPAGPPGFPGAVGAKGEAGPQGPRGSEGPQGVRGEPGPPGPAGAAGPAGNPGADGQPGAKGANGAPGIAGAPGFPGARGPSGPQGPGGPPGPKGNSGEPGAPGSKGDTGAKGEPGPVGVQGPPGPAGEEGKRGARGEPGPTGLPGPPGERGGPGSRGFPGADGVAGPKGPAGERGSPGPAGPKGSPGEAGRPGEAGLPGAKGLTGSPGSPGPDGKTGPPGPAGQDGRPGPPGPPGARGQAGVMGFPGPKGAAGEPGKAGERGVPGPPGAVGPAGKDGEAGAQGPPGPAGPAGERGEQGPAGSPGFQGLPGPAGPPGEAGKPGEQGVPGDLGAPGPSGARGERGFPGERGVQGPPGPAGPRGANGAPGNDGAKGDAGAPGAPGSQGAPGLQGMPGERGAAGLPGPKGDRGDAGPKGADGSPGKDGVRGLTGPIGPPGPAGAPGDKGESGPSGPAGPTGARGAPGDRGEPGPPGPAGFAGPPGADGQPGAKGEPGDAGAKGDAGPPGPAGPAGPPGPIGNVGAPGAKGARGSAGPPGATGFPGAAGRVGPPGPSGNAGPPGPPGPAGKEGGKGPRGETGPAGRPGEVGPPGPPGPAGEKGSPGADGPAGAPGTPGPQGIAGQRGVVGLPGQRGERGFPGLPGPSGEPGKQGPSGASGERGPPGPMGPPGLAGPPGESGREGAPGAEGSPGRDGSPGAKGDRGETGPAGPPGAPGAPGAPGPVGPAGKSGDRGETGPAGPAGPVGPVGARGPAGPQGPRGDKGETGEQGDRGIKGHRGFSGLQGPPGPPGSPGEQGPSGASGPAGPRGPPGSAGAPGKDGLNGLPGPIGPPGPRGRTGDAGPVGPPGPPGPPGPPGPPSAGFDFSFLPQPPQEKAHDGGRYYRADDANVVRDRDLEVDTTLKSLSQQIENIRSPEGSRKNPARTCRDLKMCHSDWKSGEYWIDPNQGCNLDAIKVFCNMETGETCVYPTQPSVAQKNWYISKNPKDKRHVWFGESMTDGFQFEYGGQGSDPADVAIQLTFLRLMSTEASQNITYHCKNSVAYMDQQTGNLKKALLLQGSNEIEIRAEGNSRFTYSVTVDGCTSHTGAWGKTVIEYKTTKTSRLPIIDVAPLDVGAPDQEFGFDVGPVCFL"}, "source": "paper PMC7239026", "target": "human type I collagen (human) (UniProt P02452)", "experiment": "ELISA; human glycoproteins coated on 96-well plates (5 ug/mL in 75 mM sodium carbonate buffer pH 9.6, 18 h at 4°C); blocked with 3% fish gelatin; rPepO (10 to 50 ug/mL) or rCnmA (0.125 to 2 ug/mL) in 50 mM HEPES pH 7.4, 150 mM NaCl, 2 mM CaCl2, 50 ug/mL BSA, 2 h at 37°C; bound protein detected with rabbit antiserum and peroxidase conjugate, A450 nm; wells with 1% BSA as control; both purified", "note": "Results are given in words; binding and its absence hold for the method and conditions named. Where a sequence is shown, tags or fusion partners need not be part of it.", "data": [{"binder": "His-tagged PepO recombinant protein (rPepO), endopeptidase O of Streptococcus mutans (protein, UniProt I6L8Y4 1-631) MVRLQDDFYNAVNGQWEEAAVIPDDKPRTGGFSDLADDIEDLMLETTDKWLDGKDVPDDSILQNFVKFHRQVADYDAREETGVKPVLPLIEEYKSLTSFADFASNIATYEMAGKPNELPFGVAPDFMNAQMNVLWAEAPNLILPDTTYYAEGNDKGKELLAKWRTMQEELLPKFGFEEAEIKDLLDKVLTLDAKLAQYVLSSEESSEYVKLYHPYDWADFTKLTPELPLDAIFTQILGQKPDKVIVPEERFWTNFAAEFYSEKNWPFLKATLVLAAASSYNSYLTDDIRILSGSYNRALSGTPQAMGKKKAAFYLAQGPYNQALGLWYAGEKFSPEAKKDVEAKVATMIEVYKERLHKTDWLAQETRNKAITKLNVITPHIGYPEQLPKTYAQKIIDDNLSLVENAQNLAKISIAYNWSKWNQPVDRSEWHMPAHMVNAYYDPQQNQIVFPAAILQAPFYSLEQSSSANYGGIGAVIAHEISHAFDTNGASFDENGSLNNWWTDEDYAAFKKRTDRVVEQFEGLDSYGAKVNGQLTVSENVADLGGLACALEAAKREADFSVRDFFINFATIWRMKARDEYMQMLASIDVHAPAKWRTNVTITNFDEFHQEFAVKEGDGMWRDEDKRVIIW", "values": [{"measurement": "binding", "value": "no binding (tested: 10 to 50 µg/mL rPepO)"}]}]}
